Assay results from patent US20050090505A1, “Methods of reducing risk of infection from pathogens” (priority 2003, published 2005).
At least one compound was matched to its structure with a doubt left.

Biological target: T1, airway epithelial sodium currents (sodium channel) (UniProt A0A8I3MKE6+A0A8I3Q679+Q95165)
T1 sequence (A0A8I3MKE6 1-646): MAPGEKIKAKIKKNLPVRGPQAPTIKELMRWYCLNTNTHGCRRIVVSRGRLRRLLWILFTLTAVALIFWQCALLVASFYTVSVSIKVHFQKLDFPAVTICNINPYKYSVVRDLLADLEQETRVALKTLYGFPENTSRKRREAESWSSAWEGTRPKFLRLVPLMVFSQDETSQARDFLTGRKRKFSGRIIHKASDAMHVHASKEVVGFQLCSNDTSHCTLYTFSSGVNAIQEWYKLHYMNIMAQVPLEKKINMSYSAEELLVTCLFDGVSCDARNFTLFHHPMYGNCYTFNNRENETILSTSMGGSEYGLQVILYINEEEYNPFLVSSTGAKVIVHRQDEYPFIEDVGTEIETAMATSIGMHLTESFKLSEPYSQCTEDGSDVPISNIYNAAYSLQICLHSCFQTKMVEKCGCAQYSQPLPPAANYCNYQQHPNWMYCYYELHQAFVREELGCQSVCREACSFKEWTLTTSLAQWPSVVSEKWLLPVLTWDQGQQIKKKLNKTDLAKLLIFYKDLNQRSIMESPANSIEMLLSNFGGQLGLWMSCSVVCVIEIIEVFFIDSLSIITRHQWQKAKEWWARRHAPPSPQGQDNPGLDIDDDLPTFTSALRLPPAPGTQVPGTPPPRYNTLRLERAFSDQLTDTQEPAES
T1 sequence (A0A8I3Q679 1-649): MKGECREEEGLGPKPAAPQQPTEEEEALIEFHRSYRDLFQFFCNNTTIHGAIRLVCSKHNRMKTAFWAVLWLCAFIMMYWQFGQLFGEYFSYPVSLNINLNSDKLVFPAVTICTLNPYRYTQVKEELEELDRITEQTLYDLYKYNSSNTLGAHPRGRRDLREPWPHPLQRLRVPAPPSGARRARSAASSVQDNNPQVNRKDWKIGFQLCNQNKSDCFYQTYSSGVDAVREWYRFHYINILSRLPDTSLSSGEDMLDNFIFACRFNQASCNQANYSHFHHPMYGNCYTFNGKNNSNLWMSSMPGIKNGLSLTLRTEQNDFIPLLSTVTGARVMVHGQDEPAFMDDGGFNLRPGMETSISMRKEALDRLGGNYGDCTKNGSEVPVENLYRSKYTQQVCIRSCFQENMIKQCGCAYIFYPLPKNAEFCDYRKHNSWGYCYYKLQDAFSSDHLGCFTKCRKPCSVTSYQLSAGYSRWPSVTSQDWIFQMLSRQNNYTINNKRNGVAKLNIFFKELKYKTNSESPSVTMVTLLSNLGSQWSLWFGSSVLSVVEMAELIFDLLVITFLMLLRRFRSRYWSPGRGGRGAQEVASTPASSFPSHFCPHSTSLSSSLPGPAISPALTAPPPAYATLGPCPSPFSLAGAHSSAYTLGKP
T1 sequence (Q95165 1-641): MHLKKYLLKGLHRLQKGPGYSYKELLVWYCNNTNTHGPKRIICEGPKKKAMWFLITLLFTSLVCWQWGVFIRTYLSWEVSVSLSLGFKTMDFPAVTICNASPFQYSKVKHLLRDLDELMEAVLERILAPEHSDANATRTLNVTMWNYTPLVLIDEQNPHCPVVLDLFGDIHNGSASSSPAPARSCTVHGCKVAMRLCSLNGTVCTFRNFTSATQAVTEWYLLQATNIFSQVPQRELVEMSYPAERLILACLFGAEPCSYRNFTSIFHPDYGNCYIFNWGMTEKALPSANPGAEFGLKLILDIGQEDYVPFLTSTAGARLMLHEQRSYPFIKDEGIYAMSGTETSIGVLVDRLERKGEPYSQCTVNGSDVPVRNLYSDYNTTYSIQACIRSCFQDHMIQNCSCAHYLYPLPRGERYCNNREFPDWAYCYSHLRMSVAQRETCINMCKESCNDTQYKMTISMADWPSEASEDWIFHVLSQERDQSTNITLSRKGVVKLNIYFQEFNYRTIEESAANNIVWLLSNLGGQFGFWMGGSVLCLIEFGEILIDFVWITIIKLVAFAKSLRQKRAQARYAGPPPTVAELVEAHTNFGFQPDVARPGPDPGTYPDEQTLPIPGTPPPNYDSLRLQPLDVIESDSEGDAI
Assay: Sodium channel blocking activity: inhibition of short circuit current (ISC) in airway epithelial monolayers mounted in Ussing chambers
Format: cell-based, human, dog, sheep or rodent
Details: Selected Capped Pyrazinoylguanidines (Formula I); mean ± spread
Method: In Vitro Measure of Sodium Channel Blocking Activity and Reversibility
One assay used to assess mechanism of action and/or potency of the compounds of the present invention involves the determination of lumenal drug inhibition of airway epithelial sodium currents measured under short circuit current (ISC) using airway epithelial monolayers mounted in Ussing chambers. Cells obtained from freshly excised human, dog, sheep or rodent airways are seeded onto porous 0.4 micron Snapwell™ Inserts (CoStar), cultured at air-liquid interface (ALI) conditions in hormonally defined media, and assayed for sodium transport activity (ISC) while bathed in Krebs Bicarbonate Ringer (KBR) in Using chambers. All test drug additions are to the lumenal bath with half-log dose addition protocols (from 1×10^−11 M to 3×10^−5 M), and the cumulative change in ISC (inhibition) recorded. All drugs are prepared in dimethyl sulfoxide as stock solutions at a concentration of 1×10^−2 M and stored at −20° C. […] After the maximal concentration (5×10^−5 M) is administered, the lumenal bath is exchanged three times with fresh drug-free KBR solution, and the resultant ISC measured after each wash for approximately 5 minutes in duration. […] All data from the voltage clamps are collected via a computer interface and analyzed off-line.
Dose-effect relationships for all compounds are considered and analyzed by the Prism 3.0 program. […]

N=C(NCCCCc1ccc(C[C@@H](N)CC(=O)O)cc1)NC(=O)c1nc(Cl)c(N)nc1N [compound 24407]
EC50: 32 ± 11 nM
